The name of at least one read-out is uncertain.
System: VLAPRVLRA-specific T cells
Assay: Recognition of short variant peptides pulsed on HLA-A*02:01 positive EBV transformed B-cells by VLAPRVLRA-specific T cells (interferon-gamma production)
Assay type: cell-based, human
Conditions: peptide concentration for half maximal interferon-gamma production of VLAPRVLRA-specific T cells
Procedure: Functional T cell affinity was determined by measuring GM-CSF and CCL4 production of activated T cells recognizing TEIPP-peptide pulsed HLA-A02:01+ JY target cells. To this end, JY target cells were pulsed with increasing concentrations of peptide ([…]) in serum-free medium for 2 hours at 37° C., after which T cells were directly added in T cell medium and incubated overnight at 37° C. Next day, supernatant was harvested and GM-CSF and CCL4 production was determined by ELISA. For each TCR, the IC50 value was determined by calculating the peptide concentration corresponding to 50% cytokine production of the maximum response using Graphpad Prism non-linear regression with dose-response-inhibition equations (four-parameter dose-response curve). Each peptide concentration was tested in triplo with 4,000 T cells and 20,000 target cells per well in a 96 well round-bottom plate.
The inventors investigated if exchanges into another amino acids would result in a more efficiently processed epitope. First, they examined whether these substitutions would interfere with T cell receptor interaction. Short minimal peptides with the C-terminal valine (V), leucine (L), isoleucine (I), or methionine (M) were exogenously pulsed on HLA-A*02:01 positive EBV transformed B-cells and T cell activation of the peptide 113-specific CD8+ T cell culture was measured. […] Finally, cross-presentation of the V-variant was evaluated as SLP extended with natural flanking amino acids (Table 3). After uptake and processing of the 3 different synthetic long peptide variants (P113 long V1-3; SEQ ID NOs: 25, 26, and 27), moDCs were co-cultured with the p113-specific T cell cultures and cytokine production was measured (FIG. 8).

Sequence | Recognition (IC50) (Table 1) | Recognition (IC50) (Table 4)
VLAPRVLRA [RCN1-derived HLA-A*02:01-restricted TEIPP peptide] | 1.237 µg/mL | 1.237 µg/mL
VLAPRVLRI | 0.1021 µg/mL | 0.1021 µg/mL
VLAPRVLRL | 0.5874 µg/mL | 0.5874 µg/mL
VLAPRVLRV | 0.05341 µg/mL | 0.05341 µg/mL
